Measurements as given in the supplement of paper PMC4604168 (melanoma cell lines).
The other results are listed elsewhere or left out. Repeats are few or missing, and single values can be far off.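 The apoptosis fraction was the count of cleaved-PARP antibody-stained nuclei relative to all DNA-stained nuclei, imaged in 1,536-well plates. Screening doses were set so most cells survived, and baseline and induced cleaved-PARP levels vary greatly across cell lines.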

Tests used:
Experiment in all cases: cleaved PARP positive nuclei fraction relative to DMSO control; melanoma cells; higher = more apoptosis
Conditions in all cases: library dose: low library concentration; 72 h
WM115 = system: WM115
WM1716 = system: WM1716
WM1745 = system: WM1745
WM3526 = system: WM3526
WM3619 = system: WM3619
WM451Lu = system: WM451Lu

SMILES: CCN(CC)CCNC(=O)c1c(C)[nH]c(/C=C2\C(=O)Nc3ccc(F)cc32)c1C [sunitinib] + CCN(CC)CCCCNc1ncc2cc(-c3cc(OC)cc(OC)c3)c(NC(=O)NC(C)(C)C)nc2n1 [PD173074] (first compound 0.4 µM, partner dose 0.1 µM)
- cleaved PARP positive nuclei fraction (WM115): 224%
- cleaved PARP positive nuclei fraction (WM1716): 80.6%
- cleaved PARP positive nuclei fraction (WM1745): 110%
- cleaved PARP positive nuclei fraction (WM3526): 107%
- cleaved PARP positive nuclei fraction (WM3619): 94.7%
- cleaved PARP positive nuclei fraction (WM451Lu): 158%

SMILES: CCCCCCCCc1ccc(CCC(N)(CO)CO)cc1 [fingolimod] + Cc1nc(Nc2ncc(C(=O)Nc3c(C)cccc3Cl)s2)cc(N2CCN(CCO)CC2)n1 [dasatanib] (first compound 2 µM, partner dose 0.004 µM)
- cleaved PARP positive nuclei fraction (WM115): 388%
- cleaved PARP positive nuclei fraction (WM1716): 153%
- cleaved PARP positive nuclei fraction (WM1745): 124%
- cleaved PARP positive nuclei fraction (WM3526): 109%
- cleaved PARP positive nuclei fraction (WM3619): 105%
- cleaved PARP positive nuclei fraction (WM451Lu): 212%

SMILES: Cn1cnc2c(F)c(Nc3ccc(Br)cc3Cl)c(C(=O)NOCCO)cc21 [selumetinib] + CC1(C)NC(=O)N(c2ccc([N+](=O)[O-])c(C(F)(F)F)c2)C1=O [nilutamide] (first compound 0.015 µM, partner dose 1 µM)
- cleaved PARP positive nuclei fraction (WM115): 52.2%
- cleaved PARP positive nuclei fraction (WM1716): 49.1%
- cleaved PARP positive nuclei fraction (WM1745): 95.5%
- cleaved PARP positive nuclei fraction (WM3526): 55%
- cleaved PARP positive nuclei fraction (WM3619): 113%
- cleaved PARP positive nuclei fraction (WM451Lu): 101%

SMILES: CN(c1ncccc1CNc1nc(Nc2ccc3c(c2)CC(=O)N3)ncc1C(F)(F)F)S(C)(=O)=O + Cn1c(=O)n(-c2ccc(C(C)(C)C#N)cc2)c2c3cc(-c4cnc5ccccc5c4)ccc3ncc21 [NVP-BEZ235] (first compound 0.08 µM, partner dose 0.004 µM)
- cleaved PARP positive nuclei fraction (WM115): 183%
- cleaved PARP positive nuclei fraction (WM1716): 260%
- cleaved PARP positive nuclei fraction (WM1745): 111%
- cleaved PARP positive nuclei fraction (WM3526): 114%
- cleaved PARP positive nuclei fraction (WM3619): 203%
- cleaved PARP positive nuclei fraction (WM451Lu): 88.8%

SMILES: NC1(c2ccc(-c3nc4ccn5c(=O)[nH]nc5c4cc3-c3ccccc3)cc2)CCC1 + O=S(=O)(c1ccccc1)N(CC(F)(F)F)c1ccc(C(O)(C(F)(F)F)C(F)(F)F)cc1 [T0901317] (first compound 0.4 µM, partner dose 1.4 µM)
- cleaved PARP positive nuclei fraction (WM115): 179%
- cleaved PARP positive nuclei fraction (WM1716): 31%
- cleaved PARP positive nuclei fraction (WM1745): 98.1%
- cleaved PARP positive nuclei fraction (WM3526): 526%
- cleaved PARP positive nuclei fraction (WM3619): 107%
- cleaved PARP positive nuclei fraction (WM451Lu): 27.3%

SMILES: CS(=O)(=O)c1ccc(C(=O)Nc2ccc(Cl)c(-c3ccccn3)c2)c(Cl)c1 [vismodegib] + COc1cc2c(Oc3ccc4[nH]c(C)cc4c3F)ncnc2cc1OCCCN1CCCC1 [cediranib] (first compound 1 µM, partner dose 0.4 µM)
- cleaved PARP positive nuclei fraction (WM115): 43.7%
- cleaved PARP positive nuclei fraction (WM1716): 93.4%
- cleaved PARP positive nuclei fraction (WM1745): 96.5%
- cleaved PARP positive nuclei fraction (WM3526): 88.9%
- cleaved PARP positive nuclei fraction (WM3619): 80.9%
- cleaved PARP positive nuclei fraction (WM451Lu): 136%

SMILES: Cn1cnc2c(F)c(Nc3ccc(Br)cc3Cl)c(C(=O)NOCCO)cc21 [selumetinib] + COc1ccc(C2=N[C@@H](c3ccc(Cl)cc3)[C@@H](c3ccc(Cl)cc3)N2C(=O)N2CCNC(=O)C2)c(OC(C)C)c1 [Nutlin-3] (first compound 0.015 µM, partner dose 0.1 µM)
- cleaved PARP positive nuclei fraction (WM115): 124%
- cleaved PARP positive nuclei fraction (WM1716): 67.6%
- cleaved PARP positive nuclei fraction (WM1745): 92.7%
- cleaved PARP positive nuclei fraction (WM3526): 85.6%
- cleaved PARP positive nuclei fraction (WM3619): 142%
- cleaved PARP positive nuclei fraction (WM451Lu): 58.4%

SMILES: CC(=O)O[C@@]12CO[C@@H]1C[C@H](O)[C@@]1(C)C(=O)[C@H](O)C3=C(C)[C@@H](OC(=O)[C@H](O)[C@@H](NC(=O)OC(C)(C)C)c4ccccc4)C[C@@](O)([C@@H](OC(=O)c4ccccc4)[C@H]21)C3(C)C [Docetaxel] + CCCCCCCCCCCC1=C(O)C(=O)C=C(O)C1=O [Embelin] (first compound 0.0001 µM, partner dose 1.2 µM)
- cleaved PARP positive nuclei fraction (WM115): 381%
- cleaved PARP positive nuclei fraction (WM1716): 594%
- cleaved PARP positive nuclei fraction (WM1745): 191%
- cleaved PARP positive nuclei fraction (WM3526): 262%
- cleaved PARP positive nuclei fraction (WM3619): 132%
- cleaved PARP positive nuclei fraction (WM451Lu): 365%

SMILES: CC1(C)CCC(c2ccc(Cl)cc2)=C(CN2CCN(c3ccc(C(=O)NS(=O)(=O)c4ccc(N[C@H](CCN5CCOCC5)CSc5ccccc5)c(S(=O)(=O)C(F)(F)F)c4)cc3)CC2)C1 + Nc1cccc2c1CN(C1CCC(=O)NC1=O)C2=O [lenalidomide] (first compound 0.4 µM, partner dose 1 µM)
- cleaved PARP positive nuclei fraction (WM115): 123%
- cleaved PARP positive nuclei fraction (WM1716): 578%
- cleaved PARP positive nuclei fraction (WM1745): 667%
- cleaved PARP positive nuclei fraction (WM3526): 93.5%
- cleaved PARP positive nuclei fraction (WM3619): 115%
- cleaved PARP positive nuclei fraction (WM451Lu): 95.7%

SMILES: C[C@@H](N)c1ccc(C(=O)Nc2ccnc3[nH]ccc23)cc1 + COc1cc(N2CCC(N3CCN(C)CC3)CC2)ccc1Nc1ncc(Cl)c(Nc2ccccc2S(=O)(=O)C(C)C)n1 [NVP-TAE684] (first compound 0.4 µM, partner dose 0.08 µM)
- cleaved PARP positive nuclei fraction (WM115): 45.4%
- cleaved PARP positive nuclei fraction (WM1716): 84%
- cleaved PARP positive nuclei fraction (WM1745): 144%
- cleaved PARP positive nuclei fraction (WM3526): 69.6%
- cleaved PARP positive nuclei fraction (WM3619): 128%
- cleaved PARP positive nuclei fraction (WM451Lu): 163%

SMILES: CS(=O)(=O)c1ccc(C(=O)Nc2ccc(Cl)c(-c3ccccn3)c2)c(Cl)c1 [vismodegib] + Cn1nnc2c(C(N)=O)ncn2c1=O [temozolomide] (first compound 1 µM, partner dose 2 µM)
- cleaved PARP positive nuclei fraction (WM115): 131%
- cleaved PARP positive nuclei fraction (WM1716): 220%
- cleaved PARP positive nuclei fraction (WM1745): 75.1%
- cleaved PARP positive nuclei fraction (WM3526): 192%
- cleaved PARP positive nuclei fraction (WM3619): 73.2%
- cleaved PARP positive nuclei fraction (WM451Lu): 79.2%
